No constants are given. Whether binding was seen depends on the method and setting. Some results given as binding are weak or reduced against the parent protein; the word gives no strength.
Biological target: AMPK α2-subunit (human) (UniProt P54646)
Experiment: co-purification (Ni2+-affinity and size exclusion chromatography); α, β and γ co-expressed in E. coli from a tricistronic vector; captured via the His6 tag on the α-subunit only (HisTrap HP), re-purified after CaMKKβ activation, Superdex 200; subunits detected by Coomassie SDS/PAGE and MS

Sequences of proteins named here, by UniProt entry; tags and fusion partners are left off.
UniProt P54646: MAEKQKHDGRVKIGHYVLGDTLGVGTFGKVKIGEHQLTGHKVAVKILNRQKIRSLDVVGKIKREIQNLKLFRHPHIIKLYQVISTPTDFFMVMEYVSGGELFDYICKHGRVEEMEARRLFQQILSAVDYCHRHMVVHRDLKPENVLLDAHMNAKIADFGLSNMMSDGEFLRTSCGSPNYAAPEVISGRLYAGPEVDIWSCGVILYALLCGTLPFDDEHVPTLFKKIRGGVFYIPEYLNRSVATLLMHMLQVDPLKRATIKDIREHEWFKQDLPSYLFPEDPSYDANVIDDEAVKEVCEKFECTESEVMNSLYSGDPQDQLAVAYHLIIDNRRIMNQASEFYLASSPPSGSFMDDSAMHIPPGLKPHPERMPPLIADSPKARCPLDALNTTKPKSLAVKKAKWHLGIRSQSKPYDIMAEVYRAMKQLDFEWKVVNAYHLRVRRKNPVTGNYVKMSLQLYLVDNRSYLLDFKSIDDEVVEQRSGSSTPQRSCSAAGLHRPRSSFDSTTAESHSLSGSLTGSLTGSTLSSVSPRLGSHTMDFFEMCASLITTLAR
UniProt Q9UGI9: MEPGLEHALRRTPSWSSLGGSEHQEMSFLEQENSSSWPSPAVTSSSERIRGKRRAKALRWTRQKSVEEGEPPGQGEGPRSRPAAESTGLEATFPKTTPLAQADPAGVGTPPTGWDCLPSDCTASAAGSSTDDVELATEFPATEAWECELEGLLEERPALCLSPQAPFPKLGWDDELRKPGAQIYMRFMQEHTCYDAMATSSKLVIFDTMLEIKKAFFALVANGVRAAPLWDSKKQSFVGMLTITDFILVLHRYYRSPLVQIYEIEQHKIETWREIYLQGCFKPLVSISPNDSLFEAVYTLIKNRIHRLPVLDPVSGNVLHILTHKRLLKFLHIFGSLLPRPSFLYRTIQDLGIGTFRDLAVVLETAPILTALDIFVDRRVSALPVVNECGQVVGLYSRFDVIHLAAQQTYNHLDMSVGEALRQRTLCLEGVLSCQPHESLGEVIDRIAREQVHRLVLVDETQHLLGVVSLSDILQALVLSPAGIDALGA

binding: binds
Substance: AMPK γ3-subunit (from UniProt Q9UGI9 1-489)
